Measurements as given in PMC4889050.
No constants are given. Whether binding was seen depends on the method and setting. Binding seen in cells or lysates may run through a third protein. These calls come from enrichment with a bait or labelling near it, and not all partners need be listed.

Sequences of proteins named here, by UniProt entry; tags and fusion partners are left off.
UniProt P12956: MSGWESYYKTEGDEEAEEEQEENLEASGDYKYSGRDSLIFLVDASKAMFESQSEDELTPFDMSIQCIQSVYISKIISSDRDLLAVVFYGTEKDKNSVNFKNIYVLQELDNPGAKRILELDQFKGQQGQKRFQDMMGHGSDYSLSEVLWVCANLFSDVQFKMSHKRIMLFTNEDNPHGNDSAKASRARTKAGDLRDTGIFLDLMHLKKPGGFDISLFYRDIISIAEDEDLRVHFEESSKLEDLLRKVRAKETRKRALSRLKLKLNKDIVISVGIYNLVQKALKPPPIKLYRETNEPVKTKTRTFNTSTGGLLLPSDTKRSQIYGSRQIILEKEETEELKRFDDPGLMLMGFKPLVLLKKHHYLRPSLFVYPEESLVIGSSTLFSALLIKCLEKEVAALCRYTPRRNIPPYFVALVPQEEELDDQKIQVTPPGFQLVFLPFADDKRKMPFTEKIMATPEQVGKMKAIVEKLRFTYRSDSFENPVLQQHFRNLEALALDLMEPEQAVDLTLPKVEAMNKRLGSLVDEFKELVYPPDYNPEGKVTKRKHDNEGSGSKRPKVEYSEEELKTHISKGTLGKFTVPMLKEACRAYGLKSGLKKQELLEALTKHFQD
UniProt P13010: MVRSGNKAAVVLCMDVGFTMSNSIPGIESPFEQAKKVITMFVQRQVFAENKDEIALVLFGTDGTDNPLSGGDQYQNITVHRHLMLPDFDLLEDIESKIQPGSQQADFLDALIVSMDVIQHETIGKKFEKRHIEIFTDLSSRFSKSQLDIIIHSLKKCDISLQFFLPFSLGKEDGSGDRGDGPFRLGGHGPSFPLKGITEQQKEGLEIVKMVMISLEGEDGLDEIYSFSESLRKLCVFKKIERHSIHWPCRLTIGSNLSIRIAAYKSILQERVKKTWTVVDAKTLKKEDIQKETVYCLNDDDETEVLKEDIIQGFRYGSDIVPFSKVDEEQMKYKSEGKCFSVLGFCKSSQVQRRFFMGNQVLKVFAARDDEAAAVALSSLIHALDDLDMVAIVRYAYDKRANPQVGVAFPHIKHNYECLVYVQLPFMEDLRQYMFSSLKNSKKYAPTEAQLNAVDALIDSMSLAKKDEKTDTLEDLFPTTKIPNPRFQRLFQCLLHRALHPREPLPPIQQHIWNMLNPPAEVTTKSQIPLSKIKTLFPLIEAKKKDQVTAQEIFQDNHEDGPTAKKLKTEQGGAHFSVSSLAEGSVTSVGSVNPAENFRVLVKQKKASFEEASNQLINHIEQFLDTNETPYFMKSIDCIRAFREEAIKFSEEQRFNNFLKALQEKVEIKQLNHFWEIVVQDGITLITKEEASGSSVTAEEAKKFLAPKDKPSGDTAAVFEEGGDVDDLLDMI
UniProt P27694: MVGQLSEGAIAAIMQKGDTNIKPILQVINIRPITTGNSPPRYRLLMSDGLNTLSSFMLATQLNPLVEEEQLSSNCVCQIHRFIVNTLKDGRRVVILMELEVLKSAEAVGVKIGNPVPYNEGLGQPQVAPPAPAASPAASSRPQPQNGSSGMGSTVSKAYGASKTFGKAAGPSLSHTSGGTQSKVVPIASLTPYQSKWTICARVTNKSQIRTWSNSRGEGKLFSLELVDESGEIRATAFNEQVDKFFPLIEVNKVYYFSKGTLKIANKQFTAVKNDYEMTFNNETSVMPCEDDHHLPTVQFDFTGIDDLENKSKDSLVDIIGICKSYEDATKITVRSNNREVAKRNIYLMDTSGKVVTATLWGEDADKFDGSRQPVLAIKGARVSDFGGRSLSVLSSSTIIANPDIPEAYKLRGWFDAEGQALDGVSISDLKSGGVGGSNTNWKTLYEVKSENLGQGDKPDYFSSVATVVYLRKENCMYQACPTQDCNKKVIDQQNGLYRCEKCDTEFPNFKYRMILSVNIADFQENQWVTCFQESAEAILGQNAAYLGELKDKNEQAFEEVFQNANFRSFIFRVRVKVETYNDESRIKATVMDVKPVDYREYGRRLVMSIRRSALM
UniProt Q9Y657: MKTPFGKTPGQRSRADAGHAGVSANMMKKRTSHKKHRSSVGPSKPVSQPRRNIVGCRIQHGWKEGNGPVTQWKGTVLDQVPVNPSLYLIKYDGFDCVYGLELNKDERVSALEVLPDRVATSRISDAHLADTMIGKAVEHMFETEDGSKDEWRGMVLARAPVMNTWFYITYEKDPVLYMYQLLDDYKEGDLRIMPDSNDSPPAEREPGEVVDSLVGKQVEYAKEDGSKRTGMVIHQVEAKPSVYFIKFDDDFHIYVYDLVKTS
UniProt P09874: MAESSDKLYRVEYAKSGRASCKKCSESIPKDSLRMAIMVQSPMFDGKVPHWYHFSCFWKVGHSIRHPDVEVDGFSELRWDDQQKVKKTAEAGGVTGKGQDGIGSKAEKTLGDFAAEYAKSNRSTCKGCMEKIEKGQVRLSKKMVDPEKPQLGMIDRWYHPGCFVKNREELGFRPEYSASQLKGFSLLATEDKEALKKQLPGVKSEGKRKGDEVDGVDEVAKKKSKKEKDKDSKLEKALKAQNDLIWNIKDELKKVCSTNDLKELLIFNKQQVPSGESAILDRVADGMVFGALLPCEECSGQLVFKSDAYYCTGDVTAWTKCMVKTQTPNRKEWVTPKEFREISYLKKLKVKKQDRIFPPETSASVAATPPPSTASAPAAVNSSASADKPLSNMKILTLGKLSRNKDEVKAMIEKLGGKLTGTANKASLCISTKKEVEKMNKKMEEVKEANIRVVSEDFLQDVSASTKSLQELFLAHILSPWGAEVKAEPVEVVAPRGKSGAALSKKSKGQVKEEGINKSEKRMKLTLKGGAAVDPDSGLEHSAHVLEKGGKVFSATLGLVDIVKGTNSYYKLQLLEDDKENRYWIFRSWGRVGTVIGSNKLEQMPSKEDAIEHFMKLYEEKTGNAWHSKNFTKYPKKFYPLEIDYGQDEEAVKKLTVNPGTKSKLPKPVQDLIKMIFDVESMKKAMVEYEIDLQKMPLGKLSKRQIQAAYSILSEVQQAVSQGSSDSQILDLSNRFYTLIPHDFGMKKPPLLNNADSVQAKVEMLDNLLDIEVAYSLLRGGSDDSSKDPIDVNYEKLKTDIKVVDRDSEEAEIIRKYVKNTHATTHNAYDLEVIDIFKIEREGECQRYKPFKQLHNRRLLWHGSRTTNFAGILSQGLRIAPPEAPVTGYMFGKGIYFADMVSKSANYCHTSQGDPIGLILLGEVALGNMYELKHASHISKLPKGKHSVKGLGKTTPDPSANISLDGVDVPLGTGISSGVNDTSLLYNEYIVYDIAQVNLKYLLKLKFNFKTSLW
UniProt Q13185: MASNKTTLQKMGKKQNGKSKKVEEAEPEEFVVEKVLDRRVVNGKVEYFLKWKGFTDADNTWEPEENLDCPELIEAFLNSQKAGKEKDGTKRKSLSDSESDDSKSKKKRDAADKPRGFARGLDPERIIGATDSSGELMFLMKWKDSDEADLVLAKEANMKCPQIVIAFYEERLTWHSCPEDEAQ
UniProt P45973: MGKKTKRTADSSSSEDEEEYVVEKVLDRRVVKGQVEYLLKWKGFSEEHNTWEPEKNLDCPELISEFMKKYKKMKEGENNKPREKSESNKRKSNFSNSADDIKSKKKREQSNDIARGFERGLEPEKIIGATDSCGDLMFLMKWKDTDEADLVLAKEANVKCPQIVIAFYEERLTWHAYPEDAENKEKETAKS
UniProt P20585: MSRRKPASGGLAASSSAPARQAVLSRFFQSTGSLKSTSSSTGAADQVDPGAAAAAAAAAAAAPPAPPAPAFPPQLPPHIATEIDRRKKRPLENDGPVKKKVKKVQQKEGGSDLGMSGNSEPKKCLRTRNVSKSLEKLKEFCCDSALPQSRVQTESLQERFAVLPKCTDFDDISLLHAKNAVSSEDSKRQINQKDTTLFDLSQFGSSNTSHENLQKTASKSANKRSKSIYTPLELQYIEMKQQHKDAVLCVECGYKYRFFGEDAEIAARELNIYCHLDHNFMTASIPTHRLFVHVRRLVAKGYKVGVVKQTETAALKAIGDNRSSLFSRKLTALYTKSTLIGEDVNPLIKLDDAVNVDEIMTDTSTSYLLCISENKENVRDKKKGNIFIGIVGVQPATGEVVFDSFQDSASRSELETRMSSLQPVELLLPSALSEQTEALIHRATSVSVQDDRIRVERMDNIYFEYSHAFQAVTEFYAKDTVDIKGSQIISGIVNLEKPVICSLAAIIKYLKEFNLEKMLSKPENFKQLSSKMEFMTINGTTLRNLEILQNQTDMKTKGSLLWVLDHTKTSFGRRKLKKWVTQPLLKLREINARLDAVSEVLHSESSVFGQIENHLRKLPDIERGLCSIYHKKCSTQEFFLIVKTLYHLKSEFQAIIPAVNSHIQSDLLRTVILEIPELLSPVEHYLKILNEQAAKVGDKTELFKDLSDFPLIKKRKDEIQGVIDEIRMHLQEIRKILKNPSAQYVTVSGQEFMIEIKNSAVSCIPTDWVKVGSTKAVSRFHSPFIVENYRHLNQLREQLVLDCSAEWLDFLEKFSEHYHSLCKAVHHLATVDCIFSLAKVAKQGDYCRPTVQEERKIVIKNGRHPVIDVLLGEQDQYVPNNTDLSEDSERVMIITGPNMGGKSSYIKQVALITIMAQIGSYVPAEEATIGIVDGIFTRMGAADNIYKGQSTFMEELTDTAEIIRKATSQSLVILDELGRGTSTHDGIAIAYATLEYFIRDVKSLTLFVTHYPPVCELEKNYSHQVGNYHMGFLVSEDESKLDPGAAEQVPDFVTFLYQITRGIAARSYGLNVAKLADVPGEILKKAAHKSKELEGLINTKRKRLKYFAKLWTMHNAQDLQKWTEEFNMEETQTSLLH
UniProt P15927: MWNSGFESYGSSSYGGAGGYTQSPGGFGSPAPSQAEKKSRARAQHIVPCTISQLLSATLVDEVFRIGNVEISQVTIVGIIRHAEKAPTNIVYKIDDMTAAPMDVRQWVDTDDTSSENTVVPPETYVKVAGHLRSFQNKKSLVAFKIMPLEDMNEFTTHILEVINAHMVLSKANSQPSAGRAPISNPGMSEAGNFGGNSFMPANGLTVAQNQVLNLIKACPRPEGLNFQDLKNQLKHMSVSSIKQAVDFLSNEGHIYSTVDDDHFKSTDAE
UniProt Q16531: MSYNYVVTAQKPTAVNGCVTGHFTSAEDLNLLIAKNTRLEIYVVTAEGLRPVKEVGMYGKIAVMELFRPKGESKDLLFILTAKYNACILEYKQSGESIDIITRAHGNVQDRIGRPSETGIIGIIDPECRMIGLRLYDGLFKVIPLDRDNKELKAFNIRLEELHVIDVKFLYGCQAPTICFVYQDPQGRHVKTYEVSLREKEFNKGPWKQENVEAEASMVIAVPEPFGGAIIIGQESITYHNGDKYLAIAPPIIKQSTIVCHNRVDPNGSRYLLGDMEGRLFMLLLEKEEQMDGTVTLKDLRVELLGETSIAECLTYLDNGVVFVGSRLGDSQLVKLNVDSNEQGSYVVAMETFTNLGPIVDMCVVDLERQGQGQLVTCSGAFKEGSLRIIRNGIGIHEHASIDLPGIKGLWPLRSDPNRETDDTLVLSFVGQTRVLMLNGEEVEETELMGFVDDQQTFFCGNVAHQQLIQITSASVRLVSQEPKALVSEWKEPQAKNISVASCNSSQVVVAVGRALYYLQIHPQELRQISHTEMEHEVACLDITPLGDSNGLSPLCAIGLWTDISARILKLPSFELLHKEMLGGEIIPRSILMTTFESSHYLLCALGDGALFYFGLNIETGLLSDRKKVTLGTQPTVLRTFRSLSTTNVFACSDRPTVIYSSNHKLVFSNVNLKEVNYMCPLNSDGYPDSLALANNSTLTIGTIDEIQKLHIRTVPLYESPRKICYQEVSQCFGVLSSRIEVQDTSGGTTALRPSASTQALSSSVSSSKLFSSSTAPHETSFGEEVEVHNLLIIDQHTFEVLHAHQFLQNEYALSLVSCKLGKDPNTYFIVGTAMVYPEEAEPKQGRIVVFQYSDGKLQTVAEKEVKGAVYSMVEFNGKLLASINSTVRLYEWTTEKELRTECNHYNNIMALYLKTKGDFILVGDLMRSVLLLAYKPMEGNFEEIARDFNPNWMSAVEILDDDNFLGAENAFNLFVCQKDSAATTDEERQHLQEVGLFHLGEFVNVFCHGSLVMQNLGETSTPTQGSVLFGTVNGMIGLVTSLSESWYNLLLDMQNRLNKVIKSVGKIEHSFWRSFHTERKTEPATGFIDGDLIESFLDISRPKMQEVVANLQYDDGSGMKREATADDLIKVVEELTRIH
UniProt P54727: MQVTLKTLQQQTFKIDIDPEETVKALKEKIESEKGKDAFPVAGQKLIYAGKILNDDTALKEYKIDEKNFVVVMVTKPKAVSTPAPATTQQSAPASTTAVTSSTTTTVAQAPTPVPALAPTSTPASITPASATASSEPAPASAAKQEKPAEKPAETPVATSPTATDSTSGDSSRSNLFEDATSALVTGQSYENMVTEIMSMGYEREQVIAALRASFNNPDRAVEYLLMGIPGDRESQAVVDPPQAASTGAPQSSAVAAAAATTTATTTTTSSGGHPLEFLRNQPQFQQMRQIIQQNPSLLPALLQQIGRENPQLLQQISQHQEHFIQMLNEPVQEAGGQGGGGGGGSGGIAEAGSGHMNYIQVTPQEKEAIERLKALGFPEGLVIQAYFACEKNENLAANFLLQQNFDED

T1: Halo-WDR76 (human) (UniProt Q9H967)
T1 sequence: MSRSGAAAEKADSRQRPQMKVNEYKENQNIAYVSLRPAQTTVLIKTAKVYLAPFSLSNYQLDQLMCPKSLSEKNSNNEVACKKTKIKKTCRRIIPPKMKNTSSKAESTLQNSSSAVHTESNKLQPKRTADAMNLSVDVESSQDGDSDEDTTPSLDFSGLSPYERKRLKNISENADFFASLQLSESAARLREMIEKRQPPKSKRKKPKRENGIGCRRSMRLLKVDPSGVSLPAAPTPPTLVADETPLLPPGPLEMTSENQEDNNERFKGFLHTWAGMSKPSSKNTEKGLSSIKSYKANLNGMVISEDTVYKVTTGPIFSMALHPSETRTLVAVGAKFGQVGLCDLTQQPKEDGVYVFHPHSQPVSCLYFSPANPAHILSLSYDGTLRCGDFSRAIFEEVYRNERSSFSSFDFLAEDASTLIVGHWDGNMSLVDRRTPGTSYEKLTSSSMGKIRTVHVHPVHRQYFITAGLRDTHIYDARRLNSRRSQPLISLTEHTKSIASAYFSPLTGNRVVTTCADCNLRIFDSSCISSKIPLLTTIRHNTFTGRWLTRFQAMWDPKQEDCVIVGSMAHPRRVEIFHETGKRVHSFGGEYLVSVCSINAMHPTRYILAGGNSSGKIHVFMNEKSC


Target: T1, Halo-WDR76 (human)
Experiment: affinity purification with mass spectrometry; Halo-tagged baits stably expressed in HEK293FRT; nuclear extract (0.42 M NaCl) on Magne HaloTag beads 1 hr at 4°C; washes 25 mM Tris-HCl pH 7.4, 136 mM NaCl, 2.7 mM KCl, 0.05% Nonidet P40; TEV elution; MudPIT, dNSAF, QSPEC against control purifications

| binding | Molecule |
| --- | --- |
| binds | XRCC6 (from UniProt P12956 1-609) |
| binds | XRCC5 (from UniProt P13010 1-732) |
| binds | CBX1 (from UniProt P83916 1-185) |
| binds | RPA1 (from UniProt P27694 1-616) |
| binds | SPIN1 (from UniProt Q9Y657 1-262) |
| binds | PARP1 (from UniProt P09874 1-1014) |
| binds | CBX3 (from UniProt Q13185 1-183) |
| binds | CBX5 (from UniProt P45973 1-191) |
| binds | GAN (protein, UniProt Q9H2C0 1-597) MAEGSAVSDPQHAARLLRALSSFREESRFCDAHLVLDGEEIPVQKNILAAASPYIRTKLNYNPPKDDGSTYKIELEGISVMVMREILDYIFSGQIRLNEDTIQDVVQAADLLLLTDLKTLCCEFLEGCIAAENCIGIRDFALHYCLHHVHYLATEYLETHFRDVSSTEEFLELSPQKLKEVISLEKLNVGNERYVFEAVIRWIAHDTEIRKVHMKDVMSALWVSGLDSSYLREQMLNEPLVREIVKECSNIPLSQPQQGEAMLANFKPRGYSECIVTVGGEERVSRKPTAAMRCMCPLYDPNRQLWIELAPLSMPRINHGVLSAEGFLFVFGGQDENKQTLSSGEKYDPDANTWTALPPMNEARHNFGIVEIDGMLYILGGEDGEKELISMECYDIYSKTWTKQPDLTMVRKIGCYAAMKKKIYAMGGGSYGKLFESVECYDPRTQQWTAICPLKERRFGAVACGVAMELYVFGGVRSREDAQGSEMVTCKSEFYHDEFKRWIYLNDQNLCIPASSSFVYGAVPIGASIYVIGDLDTGTNYDYVREFKRSTGTWHHTKPLLPSDLRRTGCAALRIANCKLFRLQLQQGLFRIRVHSP |
| binds | HELLS (protein, UniProt Q9NRZ9 1-838) MPAERPAGSGGSEAPAMVEQLDTAVITPAMLEEEEQLEAAGLERERKMLEKARMSWDRESTEIRYRRLQHLLEKSNIYSKFLLTKMEQQQLEEQKKKEKLERKKESLKVKKGKNSIDASEEKPVMRKKRGREDESYNISEVMSKEEILSVAKKNKKENEDENSSSTNLCVEDLQKNKDSNSIIKDRLSETVRQNTKFFFDPVRKCNGQPVPFQQPKHFTGGVMRWYQVEGMEWLRMLWENGINGILADEMGLGKTVQCIATIALMIQRGVPGPFLVCGPLSTLPNWMAEFKRFTPDIPTMLYHGTQEERQKLVRNIYKRKGTLQIHPVVITSFEIAMRDRNALQHCYWKYLIVDEGHRIKNMKCRLIRELKRFNADNKLLLTGTPLQNNLSELWSLLNFLLPDVFDDLKSFESWFDITSLSETAEDIIAKEREQNVLHMLHQILTPFLLRRLKSDVALEVPPKREVVVYAPLSKKQEIFYTAIVNRTIANMFGSSEKETIELSPTGRPKRRTRKSINYSKIDDFPNELEKLISQIQPEVDRERAVVEVNIPVESEVNLKLQNIMMLLRKCCNHPYLIEYPIDPVTQEFKIDEELVTNSGKFLILDRMLPELKKRGHKVLLFSQMTSMLDILMDYCHLRDFNFSRLDGSMSYSEREKNMHSFNTDPEVFIFLVSTRAGGLGINLTAADTVIIYDSDWNPQSDLQAQDRCHRIGQTKPVVVYRLVTANTIDQKIVERAAAKRKLEKLIIHKNHFKGGQSGLNLSKNFLDPKELMELLKSRDYEREIKGSREKVISDKDLELLLDRSDLIDQMNASGPIKEKMGIFKILENSEDSSPECLF |

Target: T1, Halo-WDR76 (human)
Experiment: affinity purification with mass spectrometry; nuclear extract (0.42 M NaCl) of HEK293FRT cells stably expressing Halo-WDR76 incubated with Magne HaloTag beads 1 hr at 4°C; washed with 25 mM Tris-HCl pH 7.4, 136 mM NaCl, 2.7 mM KCl, 0.05% Nonidet P40; eluted with AcTEV protease; MudPIT; enrichment over control purifications by QSPEC (z-score greater than 2, FDR less than 0.05)

| binding | Molecule |
| --- | --- |
| binds | PRKDC (from UniProt P78527 1-4128) |
| binds | MSH3 (from UniProt P20585 1-1137) |
| binds | RPA2 (from UniProt P15927 1-270) |
| binds | DDB1 (from UniProt Q16531 1-1140) |
| binds | RAD23B (from UniProt P54727 1-409) |
| binds | RFC1 (protein, UniProt P35251 1-1148) MDIRKFFGVIPSGKKLVSETVKKNEKTKSDEETLKAKKGIKEIKVNSSRKEDDFKQKQPSKKKRIIYDSDSESEETLQVKNAKKPPEKLPVSSKPGKISRQDPVTYISETDEEDDFMCKKAASKSKENGRSTNSHLGTSNMKKNEENTKTKNKPLSPIKLTPTSVLDYFGTGSVQRSNKKMVASKRKELSQNTDESGLNDEAIAKQLQLDEDAELERQLHEDEEFARTLAMLDEEPKTKKARKDTEAGETFSSVQANLSKAEKHKYPHKVKTAQVSDERKSYSPRKQSKYESSKESQQHSKSSADKIGEVSSPKASSKLAIMKRKEESSYKEIEPVASKRKENAIKLKGETKTPKKTKSSPAKKESVSPEDSEKKRTNYQAYRSYLNREGPKALGSKEIPKGAENCLEGLIFVITGVLESIERDEAKSLIERYGGKVTGNVSKKTNYLVMGRDSGQSKSDKAAALGTKIIDEDGLLNLIRTMPGKKSKYEIAVETEMKKESKLERTPQKNVQGKRKISPSKKESESKKSRPTSKRDSLAKTIKKETDVFWKSLDFKEQVAEETSGDSKARNLADDSSENKVENLLWVDKYKPTSLKTIIGQQGDQSCANKLLRWLRNWQKSSSEDKKHAAKFGKFSGKDDGSSFKAALLSGPPGVGKTTTASLVCQELGYSYVELNASDTRSKSSLKAIVAESLNNTSIKGFYSNGAASSVSTKHALIMDEVDGMAGNEDRGGIQELIGLIKHTKIPIICMCNDRNHPKIRSLVHYCFDLRFQRPRVEQIKGAMMSIAFKEGLKIPPPAMNEIILGANQDIRQVLHNLSMWCARSKALTYDQAKADSHRAKKDIKMGPFDVARKVFAAGEETAHMSLVDKSDLFFHDYSIAPLFVQENYIHVKPVAAGGDMKKHLMLLSRAADSICDGDLVDSQIRSKQNWSLLPAQAIYASVLPGELMRGYMTQFPTFPSWLGKHSSTGKHDRIVQDLALHMSLRTYSSKRTVNMDYLSLLRDALVQPLTSQGVDGVQDVVALMDTYYLMKEDFENIMEISSWGGKPSPFSKLDPKVKAAFTRAYNKEAHLTPYSLQAIKASRHSTSPSLDSEYNEELNEDDSQSDEKDQDAIETDAMIKKKTKSSKPSKPEKDKEPRKGKGKSSKK |
| binds | XPC (protein, UniProt Q01831 1-940) MARKRAAGGEPRGRELRSQKSKAKSKARREEEEEDAFEDEKPPKKSLLSKVSQGKRKRGCSHPGGSADGPAKKKVAKVTVKSENLKVIKDEALSDGDDLRDFPSDLKKAHHLKRGATMNEDSNEEEEESENDWEEVEELSEPVLGDVRESTAFSRSLLPVKPVEIEIETPEQAKTRERSEKIKLEFETYLRRAMKRFNKGVHEDTHKVHLLCLLANGFYRNNICSQPDLHAIGLSIIPARFTRVLPRDVDTYYLSNLVKWFIGTFTVNAELSASEQDNLQTTLERRFAIYSARDDEELVHIFLLILRALQLLTRLVLSLQPIPLKSATAKGKKPSKERLTADPGGSSETSSQVLENHTKPKTSKGTKQEETFAKGTCRPSAKGKRNKGGRKKRSKPSSSEEDEGPGDKQEKATQRRPHGRERRVASRVSYKEESGSDEAGSGSDFELSSGEASDPSDEDSEPGPPKQRKAPAPQRTKAGSKSASRTHRGSHRKDPSLPAASSSSSSSKRGKKMCSDGEKAEKRSIAGIDQWLEVFCEQEEKWVCVDCVHGVVGQPLTCYKYATKPMTYVVGIDSDGWVRDVTQRYDPVWMTVTRKCRVDAEWWAETLRPYQSPFMDREKKEDLEFQAKHMDQPLPTAIGLYKNHPLYALKRHLLKYEAIYPETAAILGYCRGEAVYSRDCVHTLHSRDTWLKKARVVRLGEVPYKMVKGFSNRARKARLAEPQLREENDLGLFGYWQTEEYQPPVAVDGKVPRNEFGNVYLFLPSMMPIGCVQLNLPNLHRVARKLDIDCVQAITGFDFHGGYSHPVTDGYIVCEEFKDVLLTAWENEQAVIERKEKEKKEKRALGNWKLLAKGLLIRERLKRRYGPKSEAAAPHTDAGGGLSSDEEEGTSSQAEAARILAASWPQNREDEEKQKLKGGPKKTKREKKAAASHLFPFEQL |
